Experimental data published in US6191258.
For at least one entry, the source does not settle the construct or the ends of the probe. At least one result comes from cells or an extract, where the contact may be indirect. No signal at the amounts used counts as a negative.

Tested on: PABF (lambda900 C-terminal fragment, beta-galactosidase fusion, ~130 kDa) (Nicotiana tabacum)
Test: binding assay
Conditions: plaque filter binding, protein in a lysate after overexpression
[1] = letters built from the parent sequence and the stated change

Sequence | binding result | binding result [1]
AATTAATTAATTAATTAATTAATTAATTAATTAATTAATTAATTAATTAATT (double strand) [PAs (AATT)13] | binds | –
CATAAGGATTAGGAATTTAATTTCGTAG (double strand) [PF] | – | no binding
TGCAGGTGTTGCACGTGATACTCACCTACCCTGCA (double strand) [G-box] | – | no binding
CGACTCACCTACCTGACATGCTACGCAGCG (double strand) [H-box] | – | no binding
CTTGTCATTATTTCTCCACCAACCCCCTTCACTTCCC (double strand) | – | no binding
